Measured values taken from PubChem BioAssay AID1487 (National Center for Advancing Translational Sciences (NCATS), 2009).
This is one part of the list. Shown are side measurements of this screen, not its main read-out; they come without a call. Most of these compounds were active or inconclusive in the main read-out, so they are no random draw. Words in brackets tell the shape of the fitted curve; partial curves, single points and poor fits give uncertain potencies.

Test: qHTS Assay for Modulators of Lamin A Splicing
Conditions: HeLa LMNA splicing GFP/RFP minigene ratio, 48 h
Procedure, shortened: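 S3 HeLa stable clones carrying a lamin A-EGFP splicing minigene plus DsRed2 were seeded at 600 cells/well in Opti-MEM with 2% FBS, pin-dosed and incubated 48 h at 37°C. Acumen cytometry (488 nm) gave the GFP/RFP total-intensity ratio.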

[1] = measured here: GFP splicing reporter channel
[2] = measured here: RFP viability control channel

Cc1nc(SCC(=O)NC(C)(C)C)c2c(-c3cccs3)csc2n1
AC50 [1]: 15.8 µM [rising, single point] | AC50 [2]: 35.5 µM [rising, single point]

C/C(=N\NC(=O)CCc1c[nH]c2ccccc12)c1ccc([N+](=O)[O-])cc1
AC50 [1]: 20 µM [rising, partial curve, poor fit] | AC50 [2]: 35.5 µM [rising, single point]

COc1ccc(Nc2nc3c(C)cccn3c(=O)c2C=NCc2ccccc2)cc1
AC50 [1]: 3.16 µM [falling, single point]

COc1ccc(CCNC(=O)c2cc3sc(Cl)cc3n2C)cc1OC
AC50 [2]: 25.1 µM [rising, single point]

O=S1(=O)C=C(Sc2nc3ccccc3s2)c2ccccc21
AC50 [1]: 3.16 µM [falling, full curve] | AC50 [2]: 6.31 µM [falling, full curve]

COc1ccc(S(=O)(=O)N2CCC(n3cnc4cc(C(F)(F)F)ccc43)CC2)cc1
AC50 [2]: 15.8 µM [rising, partial curve]

CC1(C)Cc2ccccc2C(/C(=N\Nc2cccc(Cl)c2)C(N)=O)=N1
AC50 [1]: 35.5 µM [falling, single point] | AC50 [2]: 35.5 µM [falling, single point]

CC1(C)N=C(N)N=C(N)N1c1ccccc1
AC50 [2]: 22.4 µM [rising, single point]

COCc1cc(C)nc(SCC(=O)c2ccc(O)c(O)c2)c1C#N
AC50 [2]: 35.5 µM [rising, single point]

CCC1=Nc2cc(C(=O)NCc3ccccc3Cl)ccc2Sc2ccc(C)cc21
AC50 [2]: 5.62 µM [rising, partial curve, poor fit]

Cc1nc(Oc2cccc(Cl)c2)c2oc3ccccc3c2n1
AC50 [2]: 22.4 µM [rising, single point]

Cc1ccc(Cl)cc1-n1ncc2c(NC3CCCCC3)ncnc21
AC50 [1]: 0.0112 µM [falling, full curve, poor fit]

CCOC(=O)c1c(C)[nH]c(CCC(=O)Nc2c(Cl)cc(OC)cc2OC)c1C
AC50 [2]: 3.16 µM [rising, partial curve]

CC(C)N1CCN(Cc2cccc(-n3cccn3)c2)CC1CCO (centres undefined)
AC50 [2]: 0.316 µM [falling, full curve]

COc1ccc(-c2nc(C#N)c(N3CCCCCC3)o2)cc1
AC50 [2]: 31.6 µM [rising, single point]

COc1ccccc1-c1cc(N)n(S(=O)(=O)c2ccc(F)c(C)c2)n1
AC50 [2]: 35.5 µM [rising, single point]

CC(C)(C)OC(=O)N[C@@H](Cc1ccccc1)c1nnc(S(=O)(=O)Cc2ccccc2)o1
AC50 [1]: 11.2 µM [falling, partial curve] | AC50 [2]: 25.1 µM [falling, single point]

COc1ccc(CNC(=O)Cn2c(=O)nc(-c3ccccc3F)c3cc(Cl)ccc32)cc1OC
AC50 [1]: 35.5 µM [falling, single point]

c1cn(-c2cc(-c3ccc4c(c3)OCO4)ncn2)cn1
AC50 [1]: 35.5 µM [falling, single point] | AC50 [2]: 35.5 µM [falling, single point]

COC(=O)c1ccc(S(=O)(=O)N2C3CCC2CC(NC(=O)C2CC2)C3)cc1 (centres undefined)
AC50 [1]: 2.51 µM [falling, partial curve, poor fit] | AC50 [2]: 3.98 µM [falling, partial curve]

COc1cc2c(cc1NC(=S)Nc1cccc(C(F)(F)F)c1)oc1ccccc12
AC50 [2]: 11.2 µM [rising, partial curve]

Cc1cccc(C(=O)N2CCc3cc(CNC(=O)c4ccc(Br)o4)ccc32)c1
AC50 [1]: 35.5 µM [falling, partial curve, poor fit] | AC50 [2]: 0.0562 µM [falling, full curve, poor fit]

O=C(Nc1cccc(F)c1)c1ccc(S(=O)(=O)NCC2CCCO2)cc1 (centres undefined)
AC50 [2]: 12.6 µM [rising, partial curve]

CCC(CC)C(=O)Nc1cccc(C(=O)Nc2ccc(S(=O)(=O)Nc3ccc(C)cc3)cc2)c1
AC50 [1]: 15.8 µM [falling, single point] | AC50 [2]: 35.5 µM [falling, single point]

O=C(CSc1ncn[nH]1)NN(c1ccccc1)c1ccccc1
AC50 [2]: 31.6 µM [falling, single point]

COc1ccc(OC)c(-n2nnnc2SCC(=O)Nc2ccc(C(=O)N3CCCCC3)cc2)c1
AC50 [2]: 35.5 µM [rising, single point]

Cc1cc(/C=N/Nc2nc(N3CCOCC3)nc(N3CCOCC3)n2)c(C)n1-c1ccccc1
AC50 [1]: 0.0562 µM [rising, full curve, poor fit]

CC(C)(C)OC(=O)N1CCC(c2c(C(=O)NCc3ccccc3)cnn2-c2ccccc2)CC1
AC50 [2]: 0.251 µM [rising, full curve, poor fit]

CC(C)(C)NC(=O)NC(=O)COC(=O)Cc1ccc(Cl)cc1Cl
AC50 [1]: 39.8 µM [falling, partial curve, poor fit]

Cn1c(CCN2CCOCC2)nc2cc(NC(=O)c3cccs3)ccc21
AC50 [2]: 15.8 µM [rising, partial curve]

COc1ccc(/C=C2\SC(=O)N(CCNC(=O)Cn3cnnn3)C2=O)cc1
AC50 [1]: 5.01 µM [falling, single point] | AC50 [2]: 4.47 µM [falling, single point]

Cc1ccc2nc(SC(C(=O)Nc3ccc(F)cc3)c3ccccc3)[nH]c2c1 (centres undefined)
AC50 [2]: 35.5 µM [rising, single point]

CCNS(=O)(=O)c1ccc(NC(=O)c2ccccc2)cc1
AC50 [2]: 12.6 µM [rising, single point]

COc1ccc(Nc2nc(NCC3CCCO3)c3ccccc3n2)c(OC)c1 (centres undefined)
AC50 [2]: 35.5 µM [rising, single point]

CCc1ccc(NC(=O)CSc2nc3c(sc4ccccc43)c(=O)n2CCCOC)cc1
AC50 [1]: 0.0501 µM [rising, full curve]

O=C(Nc1nnc(-c2ccc(F)cc2)o1)c1cccc([N+](=O)[O-])c1
AC50 [2]: 10 µM [rising, partial curve]

COc1ccc(C(=O)NCC(c2ccc(N(C)C)cc2)N2CCCC2)cc1 (centres undefined)
AC50 [2]: 0.794 µM [falling, single point]

CC(C)(C)n1ncc(Oc2ccccc2[N+](=O)[O-])c(Cl)c1=O
AC50 [2]: 12.6 µM [rising, partial curve]

Cc1nn2c(C(F)(F)F)c3c(nc2c1-c1ccccc1)CCC3
AC50 [1]: 35.5 µM [rising, single point]

COc1ccc(COc2cc(-c3cccc(OC)c3)nc3ccc(NC(=O)c4ccc(C)cc4)cc23)cc1
AC50 [1]: 15.8 µM [rising, single point] | AC50 [2]: 12.6 µM [rising, partial curve]

CC/C(=N\n1nnnc1Nc1ccccc1)c1ccccc1
AC50 [1]: 14.1 µM [rising, single point] | AC50 [2]: 22.4 µM [rising, single point]

CC(C)c1ccc(Nc2ncnc3c2nc2n3CCCC2)cc1
AC50 [2]: 31.6 µM [rising, partial curve]

O=C(c1ccc(Cl)cc1)c1ccc(CN2C(=O)c3ccccc3C2=O)o1
AC50 [1]: 35.5 µM [rising, single point]

Cc1c(Cl)c(C(=O)NNC(=S)Nc2ccc(F)cc2)nn1C
AC50 [2]: 0.0316 µM [falling, full curve, poor fit]

COc1ccc(Cn2c(O)c(C=Nc3ccc(C)cc3)c3ccccc3c2=O)cc1
AC50 [1]: 14.1 µM [rising, single point] | AC50 [2]: 11.2 µM [rising, partial curve]

COc1ccc(NC(=O)Nc2cccc(OCc3cc(=O)n4cccc(C)c4n3)c2)c(OC)c1
AC50 [1]: 0.398 µM [rising, full curve, poor fit] | AC50 [2]: 1.58 µM [rising, partial curve]

O=C1C2C3C=CC(C4CC34)C2C(=O)N1/N=C/c1ccc(-c2ccc([N+](=O)[O-])cc2)o1 (centres undefined)
AC50 [2]: 0.112 µM [falling, full curve, poor fit]

O=S(=O)(c1ccc2[nH]c3c(c2c1)CCCC3)N1CCN(c2cccc(C(F)(F)F)c2)CC1
AC50 [1]: 11.2 µM [rising, single point] | AC50 [2]: 11.2 µM [rising, partial curve]

NC(=O)C1CCN(C(=O)CSc2ccsc2[N+](=O)[O-])CC1
AC50 [2]: 15.8 µM [rising, single point]

COC(=O)c1cccc(S(=O)(=O)N2CCC(NC(=O)NC34CC5CC(CC(C5)C3)C4)CC2)c1
AC50 [1]: 10 µM [rising, partial curve, poor fit] | AC50 [2]: 14.1 µM [rising, partial curve]

COc1ccc(N/C=C/C(=O)c2sc(-c3ccccc3)nc2C)cc1
AC50 [1]: 35.5 µM [falling, single point] | AC50 [2]: 35.5 µM [falling, single point]

S=C(NCc1ccco1)Nc1cc(-c2ccccc2)[nH]n1
AC50 [2]: 35.5 µM [falling, single point]

COc1ccc(OC)c(C2=Nn3c(nnc3-c3cc(OC)c(OC)c(OC)c3)SC2)c1
AC50 [1]: 12.6 µM [rising, partial curve] | AC50 [2]: 35.5 µM [rising, single point]

CCn1cc(C(=O)N[C@H](C)c2ccccc2)c(=O)c2cc(F)c(N3CCN(C)CC3)cc21
AC50 [2]: 22.4 µM [rising, single point]

O=c1oc2ccccc2c(N2CCOCC2)c1[N+](=O)[O-]
AC50 [2]: 1.41 µM [falling, partial curve, poor fit]

COc1ccc(Oc2cc(Cl)nc(N)n2)cc1
AC50 [1]: 0.891 µM [rising, partial curve, poor fit]
